Patent US20240076361A1
No constants are given. Whether binding was seen depends on the method and setting. Some binding calls cover weakened binding; strength is not graded here.

Chains of the proteins cited; added tags and fusions are not shown. Lines headed by an entry give the natural chain unless they say otherwise; changes in a name come on top. A line that says so, or that is headed by a name, gives the form on record, which may keep a tag or linker.
Tau from human non-AD control brain lysate (Braak stage I) (P10636, form named): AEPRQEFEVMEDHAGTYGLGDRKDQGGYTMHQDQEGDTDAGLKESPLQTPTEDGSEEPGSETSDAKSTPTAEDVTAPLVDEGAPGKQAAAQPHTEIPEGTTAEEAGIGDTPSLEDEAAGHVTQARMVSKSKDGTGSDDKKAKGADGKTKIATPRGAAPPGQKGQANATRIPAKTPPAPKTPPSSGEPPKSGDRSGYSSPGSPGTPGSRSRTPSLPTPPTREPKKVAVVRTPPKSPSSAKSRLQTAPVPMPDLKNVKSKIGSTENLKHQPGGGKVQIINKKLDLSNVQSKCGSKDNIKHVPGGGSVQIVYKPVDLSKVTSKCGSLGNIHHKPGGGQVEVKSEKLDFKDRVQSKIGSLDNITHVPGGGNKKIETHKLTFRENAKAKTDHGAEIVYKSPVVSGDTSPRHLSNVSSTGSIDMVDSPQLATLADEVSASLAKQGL

Molecular target: Tau from human non-AD control brain lysate (Braak stage I) (human) (UniProt P10636)
Assay: Western blot; 10 microgram brain lysate per lane, antibody 0.5 microgram/mL

Row | binding | Binder
1 | binds | 5F6-4B4 (antibody, mouse IgG2b, kappa, V domains shown) VH: EVQLVESGGGLVKPGGSLKLSCVASGFSVSDYGIHWVRQAPEKGLEWVAYISSGSNTIYYIDTVKGRFTISRDNAKNTLFLQMTSLRSEDTAMYYCARRMAYWGQGTLVTVSA VL: QIVLTQSPAIMSTSPGEKVTMTCSASSSVSSMYWYQQKPGSSPRLLIYATFNLASGVPVRFSGSGSGTSYSLTISRMEAEDAATYYCQQWSSYPLTFGAGTKLEVKR
2 | binds | 5F6-4D1 (antibody, mouse IgG2b, kappa, V domains shown) VH: EVQLVESGGGLVKPGGSLKLSCVASGFSVSDYGIHWVRQAPEKGLEWVAYISSGSNTIYYIDTVKGRFTISRDNAKNTLFLQMTSLRSEDTAMYYCARRMAYWGQGTLVTVSA VL: QIVLTQSPAIMSTSPGEKVTMTCSASSSVSSMYWYQQKPGSSPRLLIYATFNLASGVPVRFSGSGSGTSYSLTISRMEAEDAATYYCQQWSSYPLTFGAGTKLEVKR
